Test results: patent US20250042995A1 (AKESO BIOPHARMA, published 2025)
These are yes or no findings as the source states them, for the method shown. Some binding calls cover weakened binding; strength is not graded here.

Biological target: T1, human LAG3-mFc (human, UniProt P18627 23-450)
T1 construct: also called antigen human LAG3-mFc; not shown: mFc: Fc protein fragment of mouse IgG
T1 sequence (looked up): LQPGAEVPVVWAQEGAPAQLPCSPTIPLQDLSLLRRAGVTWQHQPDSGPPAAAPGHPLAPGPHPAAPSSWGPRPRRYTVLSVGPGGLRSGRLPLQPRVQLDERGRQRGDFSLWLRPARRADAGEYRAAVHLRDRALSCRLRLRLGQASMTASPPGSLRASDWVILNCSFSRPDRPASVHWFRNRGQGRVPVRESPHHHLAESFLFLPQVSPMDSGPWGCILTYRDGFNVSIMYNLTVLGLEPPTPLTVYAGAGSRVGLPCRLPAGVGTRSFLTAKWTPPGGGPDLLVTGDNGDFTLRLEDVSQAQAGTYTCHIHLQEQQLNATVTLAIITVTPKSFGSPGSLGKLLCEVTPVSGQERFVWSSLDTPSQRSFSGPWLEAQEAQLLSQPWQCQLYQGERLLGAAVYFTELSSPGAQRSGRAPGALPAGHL
Assay: ELISA

- binding: binds
B1: H7L9(hG4WT) (antibody, human IgG4 S228P, kappa, V domains shown)
VH: QVQLQQWGAGLLKPSETLSLTCAVYGGSISDYYWNWIRQPPGKGLEWIGEINHRGTTNSNPSLKSRVTLSLDTSKNQFSLKLRSVTAADTAVYYCAFGYSDYEYDWFDPWGQGTLVTVSS
VL: EIVLTQSPATLSLSPGERATLSCRASQTISSYLAWYQQKPGQAPRLLIYDGSNRATGIPARFSGSGSGTDFTLTISSLEPEDFAVYYCQQRSNWPLTFGQGTNLEIKR
notes: Humanized anti-LAG3 IgG4 (Ig gamma-4 chain C region) with human kappa constant region
